From PubChem BioAssay AID1259354 (Paczesny and Yang Labs, IUPUI and University of Michigan, 2018)
Hit rate of the full screen: of about 78,000 compounds, about 1,800 (2.3%) were called active. The shares of active, inactive and inconclusive entries below differ from those in the screen. Rule as the data show it: active = inhibition above about 30%; inconclusive = mostly about 10% to 28%; inactive = weaker than that.

By UniProt entry, the sequences of proteins in these tests, tags left out. Where a name states a change or a piece, a line headed by the entry shows the natural chain unless it says otherwise.
UniProt Q01638: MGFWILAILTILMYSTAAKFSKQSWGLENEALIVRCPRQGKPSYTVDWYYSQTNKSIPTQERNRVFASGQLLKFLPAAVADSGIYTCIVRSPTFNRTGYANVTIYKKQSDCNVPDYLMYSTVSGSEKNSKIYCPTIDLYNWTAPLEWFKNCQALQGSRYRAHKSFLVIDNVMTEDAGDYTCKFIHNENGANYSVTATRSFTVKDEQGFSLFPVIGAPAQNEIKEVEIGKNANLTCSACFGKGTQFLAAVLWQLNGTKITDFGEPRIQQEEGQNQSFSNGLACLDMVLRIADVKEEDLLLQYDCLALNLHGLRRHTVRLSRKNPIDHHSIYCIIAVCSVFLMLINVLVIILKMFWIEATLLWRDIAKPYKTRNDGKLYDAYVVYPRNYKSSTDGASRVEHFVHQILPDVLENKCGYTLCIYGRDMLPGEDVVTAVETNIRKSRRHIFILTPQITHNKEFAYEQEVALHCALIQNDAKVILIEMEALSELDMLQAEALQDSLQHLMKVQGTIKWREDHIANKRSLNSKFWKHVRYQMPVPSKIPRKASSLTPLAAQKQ

Each compound was assayed against Interleukin-1 receptor-like 1 (Homo sapiens) (UniProt Q01638) (assay: blocks human ST2 binding to IL-33, primary screen, biochemical, AlphaLISA (AID 1259354)). Details: AlphaLISA ST2-Fc/biotin-IL-33 interaction, 1 h; at 17 µM, active compounds read high.

Compound | inhibition
O=C(Cc1noc2ccccc12)NCc1ccccc1-n1ccnc1 | inconclusive: 15%
N#CSCC(=O)N1c2ccccc2Sc2ccccc21 | inconclusive: 13%
COc1ccc(C(=O)Nc2cc(C(=O)Nc3cc(Cl)ccc3Cl)ccc2OC)cc1 | inactive
O=C(Cn1c(=O)n(-c2ccccc2)c(=O)c2sccc21)NC1CCCC1 | inactive
CCCS(=O)(=O)N1CCC(C(=O)NCCCOCC)CC1 | inconclusive: 12%
CC(=O)c1cccc(N2C(=O)c3c(C)nc4ccccc4c3C2=O)c1 | inconclusive: 23%
CCCCc1ccc(NC(=O)OC)cc1 | inconclusive: 24%
Cc1cc(Oc2ccc(=O)n(C)n2)nc(Oc2ccc(=O)n(C)n2)n1 | inconclusive: 13%
Cc1ccc(Cn2c(C(C)O)nc3ccccc32)cc1 (stereo not drawn) | inconclusive: 14%
O=C(c1ccc(-c2ccccc2)[nH]1)N1CCC(O)(CO)CC1 | inconclusive: 13%
CC1CCc2c(sc(NC(=O)c3noc4c3CCCC4)c2C(N)=O)C1 (stereo not drawn) | inconclusive: 11%
O=C(Cc1ccccc1)NC(Nc1ccccc1Cl)C(Cl)(Cl)Cl (stereo not drawn) | inconclusive: 13%
Cc1ccc(C(=O)Nc2ccc(NC(=O)C(C)n3ccnc3C)cc2)o1 (stereo not drawn) | inconclusive: 24%
CCCOC(=O)CSC1=C(C#N)C(c2ccc(Cl)cc2)CC(=O)N1 (stereo not drawn) | inactive
NC1CCCN(C(=O)c2cccc(-c3ccc(F)cc3)c2)CC1 (stereo not drawn) | inconclusive: 14%
Cc1ccc(S(=O)(=O)N2CC3[C@H]4C=C[C@H](C4)[C@H]3C2)cc1 (stereo partly drawn) | inconclusive: 16%
Cc1cc(C)n2nc(SC(C)C(=O)NCc3ccccc3Cl)nc2n1 (stereo not drawn) | inactive
O=[N+]([O-])c1cc(NC2C[C@@H](O)[C@@H](O)CO2)cc(Sc2ccccc2)c1 (stereo partly drawn) | inactive
Cc1cccc(-c2cn[nH]c2C2CCN(C(=O)CN)CC2)c1 | inconclusive: 18%
COc1ccc2nc3oc(C(=O)NCc4ccc(C)o4)cc3cc2c1 | inconclusive: 21%
O=C1OC(c2ccc(Cl)cc2)=C/C1=C\c1ccc(Br)o1 | inconclusive: 13%
Cc1cccn2cc(C(=O)N3CCCCC3CCc3ccccn3)nc12 (stereo not drawn) | inconclusive: 10%
CC(C)c1cc(C(=O)NC2CCCC2)no1 | inactive
CC(C)C1CN(CC(N)=O)CCC(=O)N1CC1CC1 (stereo not drawn) | inconclusive: 11%

Individual results from above.
inhibition with N#CSCC(=O)N1c2ccccc2Sc2ccccc21 reads inconclusive: 13%
inhibition with Cc1ccc(Cn2c(C(C)O)nc3ccccc32)cc1 (stereo not drawn) reads inconclusive: 14%

Next records

Compound | inhibition
CCC(CC)C(=O)NC[C@H]1O[C@@H](CC(=O)N2CCN(c3ccccc3OC)CC2)[C@H](O)[C@@H]1O | inconclusive: 12%
O=C(Nc1ccc2c(c1)S(=O)(=O)c1cc(NC(=O)c3cccs3)ccc1-2)c1cccs1 | inconclusive: 15%
Oc1ccccc1CN1C[C@H](O)C[C@H]1c1nc(-c2ccc(F)cc2)no1 | inconclusive: 15%
CSCC[C@@H](C(=O)NC(C)c1cccs1)N1Cc2ccccc2C1=O (stereo partly drawn) | inactive
COc1ccc(-c2nc(N)n(C(=O)c3ccc(F)cc3)n2)cc1 | inactive
COc1ccc(NC2=CC(=NS(=O)(=O)c3cc(C)ccc3C)c3ccccc3C2=O)cc1 | active: 95%
COc1ccc(C)cc1NS(=O)(=O)c1ccc2[nH]c(=O)c(=O)[nH]c2c1 | inconclusive: 10%
c1ccc2[nH]c([C@H]3CCN(CC4CCCCC4)C3)nc2c1 | inactive
CC(C)N(CCC(=O)c1ccc2ccccc2c1)Cc1ccccc1 | inconclusive: 22%
Fc1ccc(-c2nnc(Nc3nc4c(F)cccc4s3)o2)cc1 | inactive
Cc1ccc2c(c1)N(C(=O)CN1CCCN(Cc3ccccc3Cl)S1(=O)=O)CCO2 | inactive
O=C(c1ccc2nc(C3CCCCC3)oc2c1)N1CCCC(c2nc3ccccc3o2)C1 (stereo not drawn) | inconclusive: 10%
CCOC(=O)c1[nH]c(C)c(C(=O)NC2CCCN(CCCc3ccccc3)C2)c1C (stereo not drawn) | inactive
O=C(Nc1ccc(O)cc1)C1CC=CCC1 (stereo not drawn) | active: 34%
COc1ccc(-c2nc3cc(NC(=O)c4cccc([N+](=O)[O-])c4)ccc3o2)cc1 | inconclusive: 12%
CN(C)c1ccc(NC(=O)c2cc3sc4ccccc4c3s2)cc1 | inconclusive: 16%
Cc1[nH]c2ccc(Cl)cc2c(=O)c1CN1CCOCC1 | inactive
O=C(O)C[C@@H]1CCN(C(=O)c2ccc(C(F)(F)F)cc2)C[C@@H]1CCN1CCN(c2cccc(C(F)(F)F)c2)CC1 | inconclusive: 12%
CC(C)NC(=O)Cn1c(=O)n(CC2CCC(C(=O)N3CCCCCC3)CC2)c(=O)c2sccc21 (stereo not drawn) | inactive
CCN(Cc1noc(C)n1)C(=O)CCn1c(C)cc2ccccc21 | inconclusive: 12%
COc1ccc(C(=O)ON=C2C(C)=CC(=O)C=C2C)cc1 | active: 52%
Cc1cc(/C=C2\C(=O)NC(=O)N(C)C2=O)c(C)n1-c1ccc(F)c(Cl)c1 | active: 46%
O=C(Nc1c(F)cc(F)cc1Br)c1cc(-c2ccc(F)cc2)on1 | inactive
COc1ccc(C(=O)N[C@H]2CO[C@H]3[C@@H]2OC[C@@H]3n2cc(-c3ccccn3)nn2)cc1 | inconclusive: 16%
